Test results from patent US20110287953A1, “METHOD FOR DISCOVERING POTENTIAL DRUGS” (priority 2010, published 2011).

Test system: HCC cell lines, Mahlavu, PLC5, HepG2, and Huh7
Assay: MTT cell viability test in HCC cell lines
Conditions: 72 h, Table 3-1
Method: The HCC cell lines, Mahlavu, PLC5, HepG2, and Huh7, were cultured in Dulbecco's Modified Eagle Medium (DMEM; Seromed, Berlin, Germany) supplemented with 10% heat-inactivated fetal bovine serum, 100 μg/ml streptomycin, 100 μg/ml penicillin, and 2 mM L-glutamine in a humidified atmosphere containing 5% CO2 at 37° C. […] The cells were exposed to different concentrations of the small molecules for 72 hours. Control cells were incubated in the absence of small molecules. Afterwards, the cells were incubated with medium containing MTT for 2 hours. […] For the clonogenic assay, Huh7 cells were seeded out in appropriate dilutions in a 6-well plate and treated with selected small molecules at various concentrations for 15 days. Colonies were fixed with glutaraldehyde (6.0% v/v), stained with crystal violet (0.5% w/v), and counted.

Compound `O=C(CCCN1CCC2(CC1)C(=O)NCN2c1ccccc1)c1ccc(F)cc1` [spiperone] has an IC50 of 5 to 10 µM.
